PubChem BioAssay AID743121 | NCATS | 2013

Aim: 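Partners whose loss is lethal together with topoisomerase I blockade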 (primary screen)
Cells: MDA-MB-231 cells, a human breast cancer line
Reagent: single siRNA against human genes, 20 nM siRNA (0.8 pmol per well)
Time to read-out: 120 h (drug added 48 h after transfection, read 72 h later)
Challenge: camptothecin 20 nM (about EC30) for 72 h; vehicle 0.1% DMSO in parallel plates
Measurement: 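Cell viability by ATP luminescence (CellTiter-Glo) as % of non-targeting siRNA wells, and the log2 ratio of viability without drug over viability with camptothecin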
Reading the numbers: log2 vehicle/camptothecin viability: higher = stronger sensitisation to camptothecin
Rule for the call: 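Active genes have an RSA gene-level p-value below 0.001, computed from the ratios of their separate siRNAs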
Shown is a random part of about 26,000 reagents. In the full data, 167 (0.63%) got an active call. 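Calls are per gene from RSA p-values that are not deposited; an individual active-marked siRNA can sensitise only weakly.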 Entries without a mark were called inactive. Reagents against one gene are numbered here. Further read-outs or replicates are left out here.

For TRIM24 (tripartite motif containing 24) #1 the deposit lists log2 vehicle/camptothecin viability -0.0445.
After knock-down of TRIM24 (tripartite motif containing 24) #2 the results were log2 vehicle/camptothecin viability 0.194.
After knock-down of TRIM24 (tripartite motif containing 24) #3, the record shows log2 vehicle/camptothecin viability -0.148.
For TRIM24 (tripartite motif containing 24) #4, the values are log2 vehicle/camptothecin viability -0.27.
With knock-down of TRIM24 (tripartite motif containing 24) #5, the screen gave log2 vehicle/camptothecin viability -0.0274.
Against TRIM24 (tripartite motif containing 24) #6, the entry reads log2 vehicle/camptothecin viability -0.818.
MRPL35 (mitochondrial ribosomal protein L35) #1 gave log2 vehicle/camptothecin viability -0.527.
Against MRPL35 (mitochondrial ribosomal protein L35) #2, the entry reads log2 vehicle/camptothecin viability -0.253.
With knock-down of MRPL35 (mitochondrial ribosomal protein L35) #3, the record shows log2 vehicle/camptothecin viability -0.205.
With knock-down of MRPL35 (mitochondrial ribosomal protein L35) #4 the results were log2 vehicle/camptothecin viability -0.0655.
TGFBI (transforming growth factor beta induced) #1 gave log2 vehicle/camptothecin viability -0.15.
Depletion of TGFBI (transforming growth factor beta induced) #2 came out at: log2 vehicle/camptothecin viability -0.221.
Silencing of TGFBI (transforming growth factor beta induced) #3 gave: log2 vehicle/camptothecin viability -0.257.
For TGFBI (transforming growth factor beta induced) #4 the deposit lists log2 vehicle/camptothecin viability -0.573.

2 entries from above, reformatted:
| target | reagent no. | log2 vehicle/camptothecin viability |
| --- | --- | --- |
| MRPL35 (mitochondrial ribosomal protein L35) | 2 | -0.253 |
| MRPL35 (mitochondrial ribosomal protein L35) | 3 | -0.205 |
